Test [1] addresses UNC5B-FL (Unc-5 Netrin Receptor B, isoform with exon 8), GFP-tagged (mouse) (UniProt Q8K1S3). Briefly: co-IP; HeLa cells co-transfected with GFP-tagged and HA-tagged UNC5B isoforms, treated with Netrin-1 (150 ng/ml) or PBS/0.2% BSA for 30 min; GFP-trap magnetic beads 1 h at 4 °C; IP buffer 50 mM HEPES pH 7.6, 150 mM NaCl, 5 mM EDTA, 0.1% NP-40; immunoblot. (In western blotting, separated proteins are transferred to a membrane and probed.)

Protein sequences, listed by entry. Tags and fused reporters are not part of them. Lines headed by an entry give the natural chain unless they say otherwise; changes in a name come on top. Chains listed by the source or under a name are the forms on record and can include a tag or linker. Residues count along the entry.
UNC5B-FL (Unc-5 Netrin Receptor B, isoform with exon 8), GFP-tagged (Q8K1S3, residues 27-945): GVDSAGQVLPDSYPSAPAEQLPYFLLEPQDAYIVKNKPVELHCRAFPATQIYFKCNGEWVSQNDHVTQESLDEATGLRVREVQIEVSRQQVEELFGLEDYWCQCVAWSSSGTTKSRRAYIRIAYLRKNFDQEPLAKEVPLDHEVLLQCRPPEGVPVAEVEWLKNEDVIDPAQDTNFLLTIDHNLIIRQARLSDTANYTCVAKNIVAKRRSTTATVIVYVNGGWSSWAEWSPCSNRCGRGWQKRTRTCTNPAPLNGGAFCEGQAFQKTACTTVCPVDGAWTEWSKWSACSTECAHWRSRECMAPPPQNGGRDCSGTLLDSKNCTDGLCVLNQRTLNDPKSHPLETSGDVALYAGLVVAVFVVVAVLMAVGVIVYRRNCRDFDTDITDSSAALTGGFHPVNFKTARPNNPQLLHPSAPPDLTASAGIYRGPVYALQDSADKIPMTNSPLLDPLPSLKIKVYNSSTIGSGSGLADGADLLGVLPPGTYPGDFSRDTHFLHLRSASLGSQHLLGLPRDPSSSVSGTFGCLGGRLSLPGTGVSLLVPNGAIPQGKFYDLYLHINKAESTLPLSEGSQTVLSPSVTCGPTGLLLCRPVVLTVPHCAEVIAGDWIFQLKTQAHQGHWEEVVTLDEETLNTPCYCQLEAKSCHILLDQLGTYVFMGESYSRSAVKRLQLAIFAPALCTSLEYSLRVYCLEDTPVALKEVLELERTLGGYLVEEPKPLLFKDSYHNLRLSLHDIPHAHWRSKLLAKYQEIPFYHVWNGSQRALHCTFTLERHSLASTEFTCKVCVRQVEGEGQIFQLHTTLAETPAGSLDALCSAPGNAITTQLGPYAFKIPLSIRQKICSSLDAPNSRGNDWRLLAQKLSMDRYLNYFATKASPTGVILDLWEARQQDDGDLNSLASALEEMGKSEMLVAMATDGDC
UNC5B-Δ8 (UNC5B splicing isoform lacking exon 8), GFP-tagged (Q8K1S3, form named): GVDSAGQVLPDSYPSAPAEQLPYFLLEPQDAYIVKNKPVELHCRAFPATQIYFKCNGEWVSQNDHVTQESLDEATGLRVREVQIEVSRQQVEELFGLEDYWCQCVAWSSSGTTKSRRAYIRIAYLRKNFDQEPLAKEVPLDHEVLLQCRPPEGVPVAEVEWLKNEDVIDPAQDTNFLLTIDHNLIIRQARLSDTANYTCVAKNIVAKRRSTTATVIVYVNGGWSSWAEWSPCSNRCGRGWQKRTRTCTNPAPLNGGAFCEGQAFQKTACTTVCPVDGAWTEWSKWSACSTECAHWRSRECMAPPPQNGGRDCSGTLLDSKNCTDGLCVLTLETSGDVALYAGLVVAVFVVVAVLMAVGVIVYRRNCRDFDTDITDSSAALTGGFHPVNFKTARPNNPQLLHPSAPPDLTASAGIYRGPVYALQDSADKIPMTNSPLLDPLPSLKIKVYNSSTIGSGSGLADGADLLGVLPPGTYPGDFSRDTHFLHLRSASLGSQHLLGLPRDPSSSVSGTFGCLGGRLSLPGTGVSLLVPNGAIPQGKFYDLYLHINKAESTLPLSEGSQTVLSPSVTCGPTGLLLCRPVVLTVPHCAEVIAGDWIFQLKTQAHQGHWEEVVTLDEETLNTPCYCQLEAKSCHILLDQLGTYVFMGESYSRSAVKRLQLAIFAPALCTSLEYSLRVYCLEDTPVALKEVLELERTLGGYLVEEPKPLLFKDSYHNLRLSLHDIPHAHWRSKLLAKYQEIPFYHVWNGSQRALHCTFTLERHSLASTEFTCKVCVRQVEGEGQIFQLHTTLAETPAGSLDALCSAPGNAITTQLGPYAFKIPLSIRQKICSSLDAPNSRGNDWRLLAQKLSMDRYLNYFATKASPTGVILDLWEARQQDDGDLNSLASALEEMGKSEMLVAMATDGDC

Test [2] addresses UNC5B-Δ8 (UNC5B splicing isoform lacking exon 8), GFP-tagged (mouse) (UniProt Q8K1S3). Described as above.

No constants are given. Whether binding was seen depends on the method and setting. Binding seen in cells or lysates may run through a third protein. Some binding calls cover weakened binding; strength is not graded here.

From PMC8358048 come the findings set out here.

Regarding “UNC5B-FL (Unc-5 Netrin Receptor B, isoform with exon 8), GFP-tagged (from UniProt Q8K1S3 27-945)”, the binding result in test [1] is recorded as “binds”.

As for “UNC5B-Δ8 (UNC5B splicing isoform lacking exon 8), GFP-tagged (from UniProt Q8K1S3 27-945) (receptor)”, the binding result in test [2] was “binds”.
